# From patent US6204220A, “Substituted 2-oxo-3-alkynoic acids and methods of use thereof” (Rutgers, The State University of New Jersey, priority 1999, dated 2001)
# Amino acid sequences for entries named in this document (tags omitted). Residues count along the entry.
# UniProt P0AFG8, 2-887: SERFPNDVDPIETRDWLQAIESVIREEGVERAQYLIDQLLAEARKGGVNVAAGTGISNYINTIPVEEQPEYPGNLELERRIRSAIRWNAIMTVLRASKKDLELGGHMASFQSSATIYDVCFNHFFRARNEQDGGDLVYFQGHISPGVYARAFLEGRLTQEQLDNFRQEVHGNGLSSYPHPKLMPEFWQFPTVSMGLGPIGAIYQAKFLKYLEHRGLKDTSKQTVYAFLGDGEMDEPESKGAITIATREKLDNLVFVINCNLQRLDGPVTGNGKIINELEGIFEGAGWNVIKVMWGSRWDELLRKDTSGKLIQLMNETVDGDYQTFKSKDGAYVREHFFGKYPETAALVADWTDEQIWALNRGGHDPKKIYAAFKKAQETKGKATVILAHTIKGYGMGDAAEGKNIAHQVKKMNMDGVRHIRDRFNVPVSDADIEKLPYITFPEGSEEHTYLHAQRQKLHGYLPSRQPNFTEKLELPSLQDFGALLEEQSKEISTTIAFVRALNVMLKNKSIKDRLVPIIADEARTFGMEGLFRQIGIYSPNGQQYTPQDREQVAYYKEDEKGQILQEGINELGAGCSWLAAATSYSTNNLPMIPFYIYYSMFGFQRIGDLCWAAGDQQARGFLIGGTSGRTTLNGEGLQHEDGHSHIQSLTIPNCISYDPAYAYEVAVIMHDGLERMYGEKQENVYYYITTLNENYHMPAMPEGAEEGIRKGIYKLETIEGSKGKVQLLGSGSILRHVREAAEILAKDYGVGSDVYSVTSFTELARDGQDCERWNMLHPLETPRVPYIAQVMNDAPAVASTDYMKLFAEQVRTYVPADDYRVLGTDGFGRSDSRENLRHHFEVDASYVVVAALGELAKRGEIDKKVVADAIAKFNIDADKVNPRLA
# UniProt P0AFG8, 2-887 C260N: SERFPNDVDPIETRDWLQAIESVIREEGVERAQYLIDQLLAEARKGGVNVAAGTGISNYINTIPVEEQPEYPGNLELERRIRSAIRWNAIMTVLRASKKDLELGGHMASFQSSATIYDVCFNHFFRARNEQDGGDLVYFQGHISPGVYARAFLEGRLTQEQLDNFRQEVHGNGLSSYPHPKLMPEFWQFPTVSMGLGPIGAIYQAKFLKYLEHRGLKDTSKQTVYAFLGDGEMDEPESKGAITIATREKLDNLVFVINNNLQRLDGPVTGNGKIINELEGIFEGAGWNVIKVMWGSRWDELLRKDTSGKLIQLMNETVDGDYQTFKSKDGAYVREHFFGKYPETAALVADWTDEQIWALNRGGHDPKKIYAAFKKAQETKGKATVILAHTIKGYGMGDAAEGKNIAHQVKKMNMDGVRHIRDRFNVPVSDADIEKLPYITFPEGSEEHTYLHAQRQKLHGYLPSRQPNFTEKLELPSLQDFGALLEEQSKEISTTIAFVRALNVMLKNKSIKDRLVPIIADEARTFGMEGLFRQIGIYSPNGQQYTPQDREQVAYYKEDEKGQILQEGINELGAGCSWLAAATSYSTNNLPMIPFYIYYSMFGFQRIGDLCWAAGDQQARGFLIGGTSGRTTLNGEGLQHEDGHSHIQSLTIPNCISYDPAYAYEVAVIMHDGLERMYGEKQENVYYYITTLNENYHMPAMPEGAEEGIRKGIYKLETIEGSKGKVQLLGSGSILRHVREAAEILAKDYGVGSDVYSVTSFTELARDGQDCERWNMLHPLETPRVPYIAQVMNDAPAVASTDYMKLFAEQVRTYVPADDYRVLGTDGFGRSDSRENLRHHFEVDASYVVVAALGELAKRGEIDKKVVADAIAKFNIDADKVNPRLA
# UniProt P0AFG8, 2-887 C260S: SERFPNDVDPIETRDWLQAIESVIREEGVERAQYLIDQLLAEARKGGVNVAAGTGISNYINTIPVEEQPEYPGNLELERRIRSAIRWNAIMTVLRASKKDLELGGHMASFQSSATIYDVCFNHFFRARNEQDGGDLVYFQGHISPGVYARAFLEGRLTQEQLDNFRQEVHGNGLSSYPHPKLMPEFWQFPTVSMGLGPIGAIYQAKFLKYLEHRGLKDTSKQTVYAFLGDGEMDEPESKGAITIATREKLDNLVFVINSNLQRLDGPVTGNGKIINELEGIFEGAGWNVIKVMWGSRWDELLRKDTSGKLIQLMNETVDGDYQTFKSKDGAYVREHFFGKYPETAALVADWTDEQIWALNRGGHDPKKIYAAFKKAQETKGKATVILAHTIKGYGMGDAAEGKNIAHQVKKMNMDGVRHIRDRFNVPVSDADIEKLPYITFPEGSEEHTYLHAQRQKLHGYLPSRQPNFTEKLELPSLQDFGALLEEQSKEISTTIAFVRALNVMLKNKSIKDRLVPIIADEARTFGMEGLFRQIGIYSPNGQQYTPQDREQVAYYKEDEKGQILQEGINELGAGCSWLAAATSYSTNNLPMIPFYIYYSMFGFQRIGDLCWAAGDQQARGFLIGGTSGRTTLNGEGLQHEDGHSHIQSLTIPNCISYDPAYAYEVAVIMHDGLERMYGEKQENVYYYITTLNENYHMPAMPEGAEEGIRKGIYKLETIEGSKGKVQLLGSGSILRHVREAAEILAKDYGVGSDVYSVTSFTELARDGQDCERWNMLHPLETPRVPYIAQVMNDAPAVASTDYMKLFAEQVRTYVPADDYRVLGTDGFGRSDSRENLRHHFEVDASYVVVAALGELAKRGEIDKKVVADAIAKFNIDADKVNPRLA
# At least one compound was matched to its structure with a doubt left.
# Columns and labels:
# [1] = target: E. coli PDHc (Escherichia coli, UniProt P0AFG8); conditions: presence of ThDP and MgCl2; pyruvate at 2 mM; Schonbrunn-Hanebeck et al. 1990; cited from earlier work
# [2] = target: PDHc from E. coli (Escherichia coli, UniProt P0AFG8); conditions: cited from earlier work
# [3] = target: T1, resolved E1 (Escherichia coli, UniProt P0AFG8); assay: Inactivation of resolved E1 component (activity after reconstitution with E2-E3 subcomplex); assay type: biochemical, E. coli; conditions: data not shown
# T1 construct: made in house; host or cells: resolved from PDHc expressed in E. coli JRG1342
# Description: Resolution of the E1 component from PDHc. […] PDHc was dialyzed against 50 mM Tris buffer, pH 9.0, containing 0.1 mM benzamidine.HCl, 0.15 M NaCl, 0.1 mM PMSF for 2 h, before applying to a column equilibrated and eluted with the same buffer.
# Activity and related measurements on PDHc. The overall enzymatic reaction of the PDH complex was assayed using a Varian DMS 300 spectrophotometer or the Cobas Bio (Roche Diagnostics, Somerville, N.J.) automated centrifugal analyzer, monitoring the pyruvate-dependent reduction of NAD^+ at 340 nm. The reaction medium contained in 1 mL (DMS 300) or 0.25 mL (Cobas-Bio) test volume: 0.1 M Tris-HCl, pH 8.0; 1 mM MgCl2; 2 mM sodium pyruvate; 2.5 mM NAD^+; 0.052-0.2 mM coenzyme A; 0.2 mM ThDP; and 2.6 mM DTT at 27° C. The reaction was initiated either by adding enzyme to a mixture of all other components, or by adding CoA.
# One unit of activity is defined as the amount of NADH produced (μmol) per min per mg protein. The activity of resolved E1 was measured after reconstitution with excess E2-E3 subcomplex using the NADH assay for PDHc activity.
# (§1) Inactivation of 1-lip and 3-lip PDH complexes and resolved E1 component by 2-oxo-3-alkynoic acids. […]
# [4] = target: T2, C259N variant of 1-lip PDHc (Escherichia coli, UniProt P0AFG8, C260N); assay: Inactivation of C259N variant of 1-lip PDHc; assay type: biochemical, E. coli; conditions: butynoic acid at 1 mM
# T2 construct: made in house; host or cells: E. coli JRG1342 (PDHc null), Ptac plasmid pGS596
# Description: (§2) FIG. 6. Inactivation of 1-lip PDHc and its C259N and C259S variants by 2-oxo-3-butynoic acid. 1-lip PDHc (0.162 mg/mL) or the C259N and C259S variants of 1-lip PDHc (0.162 mg/mL) in 20 mM KH2 PO4 buffer, pH 7.5, containing 1 mM ThDP and 5 mM MgCl2 were incubated in the absence (curve 1: 1-lip PDHc and C259N variant) or in the presence of 1 mM of 2-oxo-3-butynoic acid (curve 2: the C259N variant; curve 3: 1-lip PDHc and the C259S variant) in a total volume 0.5 mL in the dark. At different times, aliquots of 50 μL were withdrawn and the overall activity was measured as described in FIG. 1A.
# (§3) Bacterial strains and plasmids for PDHc. Derivatives of the PDHc null strain, E. coli JRG1342 contained Ptac expression plasmids encoding PDHc with E2 chains bearing three lipoyl domains (3-lip PDHc; pGS523, the wild type parental complex), or a single lipoyl domain in each E2 subunit (1-lip PDHc; pGS501), and variant 1-lip PDH complexes with mutations in the E1 gene leading to C259S (pGS457) and C259N (pGS596) substitutions (Machado et al., 1992; Machado, 1993).
# as §1
# [5] = target: T3, C259S variant of 1-lip PDHc (Escherichia coli, UniProt P0AFG8, C260S); assay: Inactivation of C259S variant of 1-lip PDHc; assay type: biochemical, E. coli; conditions: butynoic acid at 1 mM
# T3 construct: made in house; host or cells: E. coli JRG1342 (PDHc null), Ptac plasmid pGS457
# Description: as §2, §3, §1
# [6] = target: T1, resolved E1; conditions: cited from earlier work; for SH-groups modified per subunit: literature comparison
# [7] = target: PDHc (Escherichia coli, UniProt P0AFG8); assay: Inactivation of 1-lip and 3-lip PDH complexes by 2-oxo-3-alkynoic acids (overall NADH assay); assay type: biochemical, E. coli; set-up: made in house; host or cells: E. coli JRG1342 (PDHc null) with Ptac plasmid pGS501 (1-lip) or pGS523 (3-lip)
# Description: as §3
# Purification of PDHc. Cultures for purification of 1-lip and 3-lip PDH complexes were grown at 37° C. in LB medium containing glucose (0.2%) and ampicillin (50 μg/mL). The PDH complexes were induced by adding IPTG to 60 μM as described by Russell et al. (1992). Cells were disrupted by ultrasonic treatment after preincubation with lysozyme (0.6 mg/mL final concentration) for 15 min. The PDHc was sedimented by ultracentrifugation (100,000×g for 3 h) and further purified by chromatography on a
# Sephacryl S-400 HR column. Fractions containing PDHc were pooled and treated with ammonium sulfate to 70% saturation. […]
# One unit of activity is defined as the amount of NADH produced (μmol) per min per mg protein. The activity of resolved E1 was measured after reconstitution with excess E2-E3 subcomplex using the NADH assay for PDHc activity. […]
# [8] = calculated from data of Flournoy & Frey, 1989
# [9] = calculated from data of Flournoy and Frey (1989)
smiles,measurement,setting,value
CC(=O)[PH](=O)O [acetylphosphinate],decrease of fluorescence intensity of E. coli PDHc,[1],30%
same,first order rate constant,"[2]; Schonbrunn-Hanebeck et al. 1990, Spinka & Hubner 1996",0.6 min⁻¹
O=C(O)C(=O)CF [fluoropyruvate],effect on catalytic activity of resolved E1 (in words),[3],inactivated
same,inactivation of C259N variant,[4],inactivated
same,inactivation of C259S variant,[5],inactivated
same,second-order rate constant for inactivation of PDHc,[2]; [8],167 M⁻¹ s⁻¹
same,ki PDHc,[2]; [9],0.331 min⁻¹
same,ki/Ki PDHc,[2]; [9],13.0 mM/min
same,second-order rate constant for inactivation of resolved E1,[6]; [8],217 M⁻¹ s⁻¹
same,ki E1,[6]; [9],0.36 min⁻¹
same,SH-groups modified per subunit,[6],1.37±0.03 SH-groups per subunit
same,inhibition / inactivation of PDHc (in words),[7],inactivated
O=C(O)C(=O)CBr [bromopyruvate],SH-groups modified per subunit,[6],1.2±0.3 SH-groups per subunit
"CC(=O)C(=O)O [pyruvate, reference compound]",decrease of fluorescence intensity of E. coli PDHc,[1],6%
